In the experiment the target is T1, TNF receptor I (mouse (endogenous in MC3T3)) (UniProt P25118).
T1 sequence: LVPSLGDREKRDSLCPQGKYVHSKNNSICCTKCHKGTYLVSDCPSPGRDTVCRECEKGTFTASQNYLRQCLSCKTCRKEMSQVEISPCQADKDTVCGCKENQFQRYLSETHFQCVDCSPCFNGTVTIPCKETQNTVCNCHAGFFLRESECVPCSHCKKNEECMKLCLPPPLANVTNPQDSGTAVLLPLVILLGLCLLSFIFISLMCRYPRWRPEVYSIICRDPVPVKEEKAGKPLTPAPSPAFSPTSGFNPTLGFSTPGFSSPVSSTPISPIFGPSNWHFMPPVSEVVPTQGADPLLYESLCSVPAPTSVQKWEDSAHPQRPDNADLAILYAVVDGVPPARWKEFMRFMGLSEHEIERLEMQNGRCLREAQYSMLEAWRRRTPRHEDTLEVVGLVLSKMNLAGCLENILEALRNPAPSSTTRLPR
As to the kind of experiment: co-IP; whole-cell lysate of MC3T3 cells overexpressing Klotho; immunoprecipitated with Klotho or TNFR I antibodies on Protein A/G PLUS-Agarose; Western blot with Klotho or TNFR I antibodies.

No constants are given. Whether binding was seen depends on the method and setting. Binding seen in cells or lysates may run through a third protein. Some entries that bind do so weakly or less than the wild type.

B1: Klotho (protein, UniProt O35082 35-1014)
chain: AEPGQGAQTWARFARAPAPEAAGLLHDTFPDGFLWAVGSAAYQTEGGWRQHGKGASIWDTFTHHSGAAPSDSPIVVAPSGAPSPPLSSTGDVASDSYNNVYRDTEGLRELGVTHYRFSISWARVLPNGTAGTPNREGLRYYRRLLERLRELGVQPVVTLYHWDLPQRLQDTYGGWANRALADHFRDYAELCFRHFGGQVKYWITIDNPYVVAWHGYATGRLAPGVRGSSRLGYLVAHNLLLAHAKVWHLYNTSFRPTQGGRVSIALSSHWINPRRMTDYNIRECQKSLDFVLGWFAKPIFIDGDYPESMKNNLSSLLPDFTESEKRLIRGTADFFALSFGPTLSFQLLDPNMKFRQLESPNLRQLLSWIDLEYNHPPIFIVENGWFVSGTTKRDDAKYMYYLKKFIMETLKAIRLDGVDVIGYTAWSLMDGFEWHRGYSIRRGLFYVDFLSQDKELLPKSSALFYQKLIEDNGFPPLPENQPLEGTFPCDFAWGVVDNYVQVDTTLSQFTDPNVYLWDVHHSKRLIKVDGVVAKKRKPYCVDFSAIRPQITLLREMRVTHFRFSLDWALILPLGNQTQVNHTVLHFYRCMISELVHANITPVVALWQPAAPHQGLPHALAKHGAWENPHTALAFADYANLCFKELGHWVNLWITMNEPNTRNMTYRAGHHLLRAHALAWHLYDDKFRAAQKGKISIALQADWIEPACPFSQNDKEVAERVLEFDIGWLAEPIFGSGDYPRVMRDWLNQKNNFLLPYFTEDEKKLVRGSFDFLAVSHYTTILVDWEKEDPMKYNDYLEVQEMTDITWLNSPSQVAVVPWGLRKVLNWLRFKYGDLPMYVTANGIDDDPHAEQDSLRIYYIKNYVNEALKAYVLDDINLCGYFAYSLSDRSAPKSGFYRYAANQFEPKPSMKHYRKIIDSNGFLGSGTLGRFCPEEYTVCTECGFFQTRKSLLVFISFLVFTFIISLALIFHYSKKGQRSYK
Turning to B1, the binding entry is “binds”.

(Values after publication PMC9090922.)
